PubChem BioAssay AID1671190 (National Center for Advancing Translational Sciences (NCATS), 2021)
Values joined by “and” are separate entries in the source; they are usually repeats but may differ in a detail not shown here. Equal values may be shown once. Among all 580,000 compounds or so, about 6,100 (1.1%) were called active. Inconclusive results, whose numbers are uncertain, are shown with a selection of clear calls. Calls come from the whole dose curve; as a rule, active = well fitted inhibition curve with a large enough effect; inconclusive = small, poorly fitted or top-dose-only effect, or another doubt; inactive = no such curve, though single readings can be large or run the other way. Potencies beside an inconclusive call are fits to weak or partial responses and may not hold up.
% is set by controls: 0 for no effect and ±100 for the full control effect; potency is the fitted concentration of half-maximal effect.

The chains behind the UniProt entries cited, without tags or fusion partners. Where a name states a change or a piece, a line headed by the entry shows the natural chain unless it says otherwise.
UniProt P18054: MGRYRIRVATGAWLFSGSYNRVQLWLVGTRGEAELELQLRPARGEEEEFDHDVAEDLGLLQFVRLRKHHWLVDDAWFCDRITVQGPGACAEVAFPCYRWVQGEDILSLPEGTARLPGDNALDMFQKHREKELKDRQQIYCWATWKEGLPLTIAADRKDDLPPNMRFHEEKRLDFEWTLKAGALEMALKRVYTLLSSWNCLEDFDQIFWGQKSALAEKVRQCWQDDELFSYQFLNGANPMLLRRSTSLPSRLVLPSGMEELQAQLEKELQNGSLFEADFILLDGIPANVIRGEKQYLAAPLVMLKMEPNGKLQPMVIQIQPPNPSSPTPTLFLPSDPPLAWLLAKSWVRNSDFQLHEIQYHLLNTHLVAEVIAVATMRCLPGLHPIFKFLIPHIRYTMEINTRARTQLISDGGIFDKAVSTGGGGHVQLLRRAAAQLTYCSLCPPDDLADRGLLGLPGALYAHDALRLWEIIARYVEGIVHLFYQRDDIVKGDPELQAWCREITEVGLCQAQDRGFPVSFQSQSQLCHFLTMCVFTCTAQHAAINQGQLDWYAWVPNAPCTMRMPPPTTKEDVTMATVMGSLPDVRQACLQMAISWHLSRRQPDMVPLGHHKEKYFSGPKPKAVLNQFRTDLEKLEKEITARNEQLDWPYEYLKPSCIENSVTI

What follows are compounds tested against Polyunsaturated fatty acid lipoxygenase ALOX12 (Homo sapiens) (UniProt P18054) (assay: Primary qHTS assay for inhibitors of human arachidonate 12S-lipoxygenase (ALOX12): Round 2). Details: purified 12hLO, xylenol orange hydroperoxide absorbance; activity change, negative = inhibition: at 108 µM (top of the series) unless noted.
How it was run: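 Purified human 12hLO at 150 nM in 25 mM Hepes, 0.01% Triton X-100, pH 7.0, preincubated 15 min at room temperature with compound. Reaction started with 40 uM arachidonic acid, 30 min at room temperature. Hydroperoxide measured by Fe-xylenol orange, 573/405 nm absorbance ratio.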
With `CCCn1c(N)c(N2CCOCC2)c(=O)n(CC(=O)Nc2ccc(C)cc2)c1=O` the Potency was inconclusive: 56.2 µM [inhibitor, partial curve, poor fit].
`COc1ccc(/C=C2\CN(Cc3ccccc3)C/C(=C\c3ccc(OC)c(O)c3)C2=O)cc1O` was tested, and the Potency was inconclusive: 50.1 µM [inhibitor, partial curve, poor fit].
In the case of `Cc1ccc(C)c(N2CCN(C(=O)c3ccc(CSc4nc5ccncc5[nH]4)cc3)CC2)c1`, the Potency is reported as inconclusive: 5.62 µM [inhibitor, partial curve, poor fit].
In the case of `COc1ccc(C(=O)Oc2ccc(Cl)cc2C)c(OC)c1`, the Potency is reported as inconclusive: 112 µM [inhibitor, single point].
In the case of `CNc1cnc(-c2ccc(O)c(OC)c2)cn1`, the Potency is reported as inconclusive: 39.8 µM [inhibitor, partial curve, poor fit].
For `COc1ccccc1Nc1nc(N)c(C(=O)c2c(C)cc(C)cc2C)s1`, the Potency was inconclusive: 15.8 µM [inhibitor, full curve].
In the case of `CCC(=O)N(CCC1(c2ccc(C)cc2)CCOC(C)(C)C1)Cc1ccccc1` (centres undefined), the Potency is reported as inconclusive: 100 µM [inhibitor, single point].
In the case of `CCc1ccccc1NC(=O)C1CC(c2ccc(OC)cc2)=NO1` (centres undefined), the Potency is reported as inconclusive: 39.8 µM [inhibitor, single point].
With `O=C(Cc1cccc2ccccc12)OCn1nnc2ccccc2c1=O` the “activity change, negative = inhibition” value was inactive: 13.5%.
With `COc1ccc(C(C)=O)cc1COC(=O)CNC(=O)c1ccc(F)cc1` the “activity change, negative = inhibition” value was inactive: -11.9%.
For `Cc1ccc2nc(C)cc(C(=O)NC3CCN(C(=O)c4ccccc4)CC3)c2c1`, the Potency was inconclusive: 141 µM [inhibitor, partial curve, poor fit].
`Cc1ccccc1C(=O)N1CCC(CCC(=O)N2CCN(c3ccccn3)CC2)CC1` was tested, and the “activity change, negative = inhibition” value was inactive: 0.69%.
In the case of `COc1cc(NC(=O)c2cnc(SC)nc2C(F)(F)F)cc(OC)c1`, the Potency is reported as inconclusive: 100 µM [inhibitor, single point].
With `CCn1cc(C2=NC(C)CO2)c2ccccc21` (centres undefined) the “activity change, negative = inhibition” value was inactive: 9.12%.
With `COC(=O)c1ccccc1S(=O)(=O)N1CCC(C(=O)NCc2ccccn2)CC1` the Potency was inconclusive: 2.51 µM [inhibitor, full curve, poor fit].
In the case of `CCS(=O)(=O)n1nc(-c2ccccc2)nc1SCc1ccccc1`, the Potency is reported as active: 28.2 µM.
`CCCCn1nc(C(=O)N(C)Cc2cnn(-c3ccccc3)c2)c2ccccc2c1=O` was tested, and the Potency was inconclusive: 56.2 µM [inhibitor, partial curve, poor fit].
In the case of `CCN(CC)CCN(C(=O)c1ccc(Br)s1)c1nc2cc3c(cc2s1)OCCO3`, the Potency is reported as inconclusive: 50.1 µM [inhibitor, partial curve, poor fit].
With `Nc1nc(CSc2nnnn2-c2ccc(Cl)cc2)nc(N2CCOCC2)n1` the “activity change, negative = inhibition” value was inactive: -81.6%.
For `CC(=O)N1N=C(c2ccc(F)cc2)CC1c1ccc2nccnc2c1` (centres undefined), the Potency was inconclusive: 112 µM [inhibitor, single point].
With `O=C(O)C1=C[C@@H](c2ccc(C(F)(F)F)cc2)C[C@@H](OCCCCO)O1` the Potency was inconclusive: 89.1 µM [inhibitor, partial curve, poor fit].
`Cc1cccc(C(C)C)c1NC(=O)C1CN(S(=O)(=O)c2ccccc2)CCN1S(=O)(=O)c1ccccc1` (centres undefined) was tested, and the “activity change, negative = inhibition” value was inactive: -1.15%.
`O=C(Nc1ccccc1)C1=C[C@H](c2csc3ccccc23)C[C@H](OCCCCO)O1` was tested, and the Potency was inconclusive: 79.4 µM [inhibitor, partial curve, poor fit].
In the case of `O=C(CN1CCN(c2ccc(O)cc2)CC1)Nc1ccc(-c2ccccc2)cc1`, the Potency is reported as inconclusive: 39.8 µM [inhibitor, partial curve, poor fit].
For `Fc1ccc(CCNC(=S)NC2CC2)cc1`, the Potency was inconclusive: 35.5 µM [inhibitor, partial curve, poor fit].
For `CCCCN(CC)CCCNC(=O)c1cn(CC(C)C)c(=O)c2c1c1ccccc1n2C`, the Potency was “inactive and inconclusive: 44.7 µM [inhibitor, partial curve, poor fit]”.
In the case of `O=C(Nc1ccccc1Oc1ccccc1)c1cccc(CN2CCCC2=O)c1`, the Potency is reported as inconclusive: 56.2 µM [inhibitor, partial curve, poor fit].
With `CCOC(=O)C1=C(c2ccccc2)OC(N)=C(C#N)C1c1ccc(Cl)s1` (centres undefined) the Potency was inconclusive: 39.8 µM [inhibitor, partial curve].
In the case of `COCCCN(CCC#N)C(=O)c1c(-c2c(Cl)cccc2Cl)noc1C`, the Potency is reported as inconclusive: 126 µM [inhibitor, single point].
`CN1CC(=O)N(C2CCNC2)Cc2c1ncnc2N1CCCN(Cc2ccccc2)CC1` (centres undefined) was tested, and the Potency was inconclusive: 2.54 µM [inhibitor, partial curve].
`CC1Cc2ccccc2N1S(=O)(=O)c1nnc(NC(=O)c2ccccc2Br)s1` (centres undefined) was tested, and the Potency was inconclusive: 89.1 µM [inhibitor, partial curve, poor fit].
With `FC(F)(F)c1ccc(N2C3CCC2CN(CC2CCCC2)C3)cc1` the Potency was inconclusive: 11.2 µM [inhibitor, full curve].
`Fc1cccc(Oc2ccc3c(-c4ccccc4F)noc3n2)c1` was tested, and the Potency was inconclusive: 3.16 µM [inhibitor, full curve, poor fit].
`C=CCN1C(=O)/C(=C\C(C)=C\c2ccccc2)SC1=S` was tested, and the “activity change, negative = inhibition” value was inactive: 0%.
`COc1ccc(-c2csc(NC(=O)CC(C)C)n2)cc1` was tested, and the Potency was inconclusive: 31.6 µM [inhibitor, single point].
`Cc1[nH]c2ccc(F)cc2c1CCNC(=O)c1cc2cc(Cl)ccc2oc1=O` was tested, and the Potency was inconclusive: 79.4 µM [inhibitor, partial curve, poor fit].
`CCn1c(SCC(=O)NC2CCCCC2)nnc1-c1cccs1` was tested, and the “activity change, negative = inhibition” value was inactive: 10%.
For `COCCCNC(=O)c1oc2ccc(S(=O)(=O)N3CCOCC3)cc2c1C`, the “activity change, negative = inhibition” value was inactive: -12.8%.
For `CC(C)Oc1ccc(C(=O)Nc2ccc3oc(-c4ccncc4)nc3c2)cc1`, the Potency was inconclusive: 31.6 µM [inhibitor, partial curve, poor fit].
With `COc1ccccc1-c1cc(=O)c2cc(NS(=O)(=O)c3ccccc3)ccc2o1` the Potency was inconclusive: 89.1 µM [inhibitor, single point].
`CCCC(CNC(C)=O)(C1=CCCCC1)c1ccccc1` (centres undefined) was tested, and the “activity change, negative = inhibition” value was inactive: 8.38%.
With `Oc1cccc(-c2csc(C(O)(c3ccccc3)C(F)(F)F)n2)c1` (centres undefined) the Potency was inconclusive: 50.1 µM [inhibitor, partial curve, poor fit].
For `CCCNc1nc(-c2ccccc2)c(C(=O)OCC)cc1C#N`, the “activity change, negative = inhibition” value was inactive: -8.6%.
`Cc1cc(-c2ccc(N=Nc3ccc4c(S(=O)(=O)O)cc(S(=O)(=O)O)c(N)c4c3O)c(C)c2)ccc1N=Nc1ccc2c(S(=O)(=O)O)cc(S(=O)(=O)O)c(N)c2c1O` was tested, and the “activity change, negative = inhibition” value was inactive: 159%.
In the case of `CN1CCC(N(C)S(=O)(=O)c2ccc(NC(=O)COc3ccc(Br)cc3Cl)cc2)CC1`, the Potency is reported as inconclusive: 39.8 µM [inhibitor, partial curve, poor fit].
With `C(#CC12CC3CC(CC(C3)C1)C2)CN1CCOCC1` the Potency was inconclusive: 112 µM [inhibitor, single point].
In the case of `Cc1ccc(CNC(=O)c2c[nH]c3ccc(S(=O)(=O)Nc4ccc(C(C)C)cc4)cc3c2=O)cc1`, the Potency is reported as inconclusive: 39.8 µM [inhibitor, partial curve, poor fit].
In the case of `Cc1cccc(NC(=S)N(CCC(C)C)C(C)c2cccs2)c1` (centres undefined), the Potency is reported as inconclusive: 56.2 µM [inhibitor, partial curve, poor fit].
In the case of `COc1ccc(C(=S)N2CCNCC2)cc1`, the “activity change, negative = inhibition” value is reported as inactive: -5.33%.
With `Fc1ccccc1CNc1nc(-c2cccnc2)nc2ccccc12` the Potency was inconclusive: 0.794 µM [inhibitor, full curve, poor fit].
In the case of `CC(C)(C)c1ccc(-c2oc(NC(=O)CCl)c(C#N)c2-c2ccc(C(C)(C)C)cc2)cc1`, the Potency is reported as inconclusive: 44.7 µM [inhibitor, partial curve, poor fit].
For `O=C(Cc1cccs1)NNC(=S)NC(=O)c1ccco1`, the “activity change, negative = inhibition” value was inactive: -8.36%.
In the case of `O=C1NC(=NC2CCCC2)C2(CCCN(CC3CC3)C2)N1c1cc(F)cc(F)c1` (centres undefined), the activity change, negative = inhibition is reported as inactive: -0.121% [at 6.33 µM].
`COC(=O)C1CN(Cc2cn(Cc3ccccc3)nn2)CCS(=O)(=O)N1Cc1ccccc1` (centres undefined) was tested, and the Potency was inconclusive: 5.62 µM [inhibitor, full curve, poor fit].
In the case of `CCC(C)(C)n1nnnc1C(c1ccc(O)c(OC)c1)N1CCc2ccccc2C1` (centres undefined), the Potency is reported as inconclusive: 7.08 µM [inhibitor, full curve, poor fit].
With `CC(C)(C)S(=O)(=O)/C(C#N)=N/Nc1ccc(C#N)cc1` the “activity change, negative = inhibition” value was inactive: 21.2%.
`COc1cc(C(=O)NC2CCCc3ccccc32)ccc1C` (centres undefined) was tested, and the “activity change, negative = inhibition” value was inactive: 0.495%.
In the case of `S=c1[nH]nc(-c2ccccn2)n1/N=C/c1c(Cl)cccc1Cl`, the “activity change, negative = inhibition” value is reported as inactive: 0%.
For `COC(=O)CN1CCCC1Cc1cccc(OC)c1` (centres undefined), the Potency was inconclusive: 3.98 µM [inhibitor, full curve].
With `COc1cc(NC(=O)NC[C@H]2O[C@@H](CO)[C@@H](O)[C@H]2N2CCN(c3ccccc3)CC2)cc(OC)c1` the Potency was inconclusive: 20 µM [inhibitor, full curve, poor fit].
`O=C(c1cc(COc2c(F)cccc2F)on1)N1CC[C@@H]2CCCC[C@H]2C1` was tested, and the Potency was inconclusive: 39.8 µM [inhibitor, partial curve, poor fit].
With `O=C1CC(c2ccccc2)=NN1c1ccc([N+](=O)[O-])cc1` the Potency was inconclusive: 35.5 µM [inhibitor, partial curve].
`CCCc1noc(-c2ccn3c(CNC(=O)c4ccccc4OC)nnc3c2)n1` was tested, and the Potency was inconclusive: 79.4 µM [inhibitor, partial curve].
`O=C(O)C[C@@H]1CCN(C(=O)Nc2ccc(OC(F)(F)F)cc2)C[C@@H]1CCN1C[C@@H]2C[C@H](C1)c1cccc(=O)n1C2` was tested, and the Potency was inconclusive: 17.8 µM [inhibitor, full curve, poor fit].
